# Results reported in US8034799B2, “Preventing and/or treating cardiovascular disease and/or associated heart failure” (Philera New Zealand Limited, priority 2002, dated 2011).
# System: STZ diabetic and normal Wistar rats
# Details: mean ± SD
structure (smiles),measurement,setting,value
"NCCNCCNCCN [trientine, N,N′-Bis(2-aminoethyl)-1,2-ethanedi-amine]",Final weight,"STZ/D7: diabetic rats, trientine 50 mg/L in drinking water weeks 7-13",290 ± 56 g
same,Final weight,"Sham/D7: non-diabetic rats, trientine in drinking water weeks 7-13",563 ± 17 g

# Where two headings read alike, the source gives them in different places.
